Measurements reported in PubChem BioAssay AID1259405 (NCATS, 2018).
Assay: 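Mouse-designed siRNAs used to find CHO productivity engineering targets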 (primary screen). Cells: Chinese hamster CHO-K1 ovary cells with stable secreted eGFP expression. Knock-down reagent: single siRNA against mouse genes, 0.8 pmol siRNA per well (2 µl of 400 nM stock). Timing: 3 days. Measurement: 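Percent of the per-plate non-targeting control median for intracellular GFP per well by laser scanning cytometry and for cell viability by ATP luminescence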. Scale: GFP, % of control: higher = more GFP per well, higher productivity; viability (ATP), % of control: higher = more viable cells (more ATP). Call rule: 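Called active when intracellular GFP, relative to negative control, is at or above 120%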.
Here is an unselected part of about 50,000 reagents. In the full data, about 4,000 (8%) were called active. 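Mouse siRNA library applied to hamster cells; one well for each siRNA.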 Entries without a mark were called inactive. The numbers tell different reagents against one gene apart.

target gene,reagent no.,"GFP, % of control","viability (ATP), % of control"
4931429L15Rik (RIKEN cDNA 4931429L15 gene),1,42.8,58.5
4931429L15Rik (RIKEN cDNA 4931429L15 gene),2,43.8,29.9
4931429L15Rik (RIKEN cDNA 4931429L15 gene),3,42,52
Foxp1 (forkhead box P1),1,65.3,82.5
Foxp1 (forkhead box P1),2,67.3,40.7
Foxp1 (forkhead box P1),3,81.3,93
Ikzf5 (IKAROS family zinc finger 5),1,55.8,65.4
Ikzf5 (IKAROS family zinc finger 5),2,92.5,105
Ikzf5 (IKAROS family zinc finger 5),3,112,85.7
Acss1 (acyl-CoA synthetase short-chain family member 1),1,62.8,85.8
Acss1 (acyl-CoA synthetase short-chain family member 1),2,94.1,73.5
Acss1 (acyl-CoA synthetase short-chain family member 1),3,72.7,136
Or8g37 (olfactory receptor family 8 subfamily G member 37),1,61.5,63.8
Or8g37 (olfactory receptor family 8 subfamily G member 37),2,25.4,19.2
Or8g37 (olfactory receptor family 8 subfamily G member 37),3,48.4,56.8
Map4 (microtubule-associated protein 4),1,87,70.3
Map4 (microtubule-associated protein 4),2,91.8,95.4
Ctsa (cathepsin A),1,107,114
Ctsa (cathepsin A),2,77,80.6
Ctsa (cathepsin A),3,99.5,52.8
"Aco2 (aconitase 2, mitochondrial)",1,100,116
"Aco2 (aconitase 2, mitochondrial)",2,66.9,82.2
"Atad5 (ATPase family, AAA domain containing 5)",1,68.8,85.3
"Atad5 (ATPase family, AAA domain containing 5)",2,74.7,54.1
"Atad5 (ATPase family, AAA domain containing 5)",3,65,81.9
Ext1 (exostosin glycosyltransferase 1),1,111,133
Ext1 (exostosin glycosyltransferase 1),2,79.3,123
Ext1 (exostosin glycosyltransferase 1),3,81.8,112
Slc10a6,1,99.7,78.8
Slc10a6,2,51.5,43.3
Slc10a6,3,96.7,86.3
Itga7 (integrin alpha 7),1,82.5,76.9
Itga7 (integrin alpha 7),2,64.6,63.7
"Supt6 (SPT6, histone chaperone and transcription elongation factor)",1,85.9,104
"Supt6 (SPT6, histone chaperone and transcription elongation factor)",2,63.4,74.4
"Supt6 (SPT6, histone chaperone and transcription elongation factor)",3,37.3,36.4

6 entries from above, limited to “viability (ATP), % of control”:
Acss1 (acyl-CoA synthetase short-chain family member 1) #3 = 136
Or8g37 (olfactory receptor family 8 subfamily G member 37) #1 = 63.8
Or8g37 (olfactory receptor family 8 subfamily G member 37) #2 = 19.2
Or8g37 (olfactory receptor family 8 subfamily G member 37) #3 = 56.8
Map4 (microtubule-associated protein 4) #1 = 70.3
Map4 (microtubule-associated protein 4) #2 = 95.4
